Results deposited as PubChem BioAssay AID504804 (Drosophila RNAi Screening Center, 2011)
Screen: 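dsRNAs that improve Kc cell survival under doxorubicin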 (primary screen). Cell system: Drosophila Kc cells. Knock-down reagent: long dsRNA against Drosophila genes, 0.5 µg dsRNA per well. Duration: 96 h (48 h knock-down, then 48 h drug). Challenge: doxorubicin 5 µg/ml for 48 h, added 48 h after dsRNA. Measurement: 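Viability measured as cellular ATP by luminescence after 48 h knock-down then 48 h doxorubicin at 5 µg/ml; unnormalised plate counts for each replicate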. Reading the numbers: raw ATP luminescence: higher = more viable cells, protection from doxorubicin. Call rule: 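z-score of 2 or more over plate mean in both duplicates, retained only when retests and separate dsRNAs confirm the protection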.
The screen tested about 19,000 reagents; below is an unselected part of those with a known target gene and a result. In the full data, 47 (0.25%) are marked active. 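Signals are raw, not normalised; exact z-scores behind calls not deposited; actives needed confirmation, so some wells reaching 2 SD are inactive.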 A number with no mark means an inactive call. Names joined by + are all predicted targets of the reagent.

no.	target gene	DRSC id	SD above plate mean	raw ATP luminescence, replicate 1	raw ATP luminescence, replicate 2
1	CG17198 + CG17197	DRSC15190		61560	60370
2	CG17198 + CG17197	DRSC15191		53220	61040
3	CG10725	DRSC09788	at least 3 SD above plate mean (active)	72987	72207
4	lin-28	DRSC10261		53430	72770
5	Adgf-B	DRSC10568		34380	31560
6	CG31560	DRSC12136		69663	65117
7	CG33981 + fab1	DRSC07412		55317	68597
8	ppk14	DRSC03238		23703	25200
9	eIF2D	DRSC13916		2.05e5	1.85e5
10	Dph3	DRSC14923		56677	51567
11	Rim	DRSC16224		43700	53340
12	Rim	DRSC16225		18510	17730
13	Rim	DRSC16226		43650	50663
14	Rim	DRSC16227		40240	38160
15	Acp1	DRSC01854		32547	60820
16	Synj	DRSC04526		63907	59263
17	CG3407	DRSC00603		1.01e5	73513
18	Atg18b	DRSC03108		66683	72557
19	CG11902	DRSC14434		75040	64490
20	CG5188	DRSC02826		38963	71967
21	AGO1	DRSC05912		54260	49167
22	MFS9	DRSC15560		50733	44400
23	Dip-B	DRSC16466		62483	27200
24	gkt	DRSC00821		25460	30467
25	CG2291	DRSC06836		36810	73393
26	nbs	DRSC11373		97627	1.01e5
27	Ctu1	DRSC07069		34560	66013
28	PGRP-SC2	DRSC06481		40527	76800
29	CG6833	DRSC10721		16973	21740
30	Elal	DRSC16662		30787	47653
31	CG10764	DRSC06000		63140	61877
32	CG30371	DRSC06835		42287	71313
33	CG44085	DRSC02922		11390	23133
34	CG18418	DRSC08535		31883	25727
35	sowah	DRSC09186		1.58e5	95583
36	sowah	DRSC09758		32120	35033
37	dsh	DRSC19803		3.44e5	2.94e5
38	CG6885	DRSC10740		35860	28917
39	CG40191	DRSC21041		2.05e5	2.12e5
40	CG7448 (retired record)	DRSC11828		20627	17837
41	CG7557	DRSC10878		35430	27097
42	TM9SF3	DRSC09747		62013	74253
43	S6k	DRSC11276		67427	86133
44	Cpr31A	DRSC02779		29583	55130
45	CG15369	DRSC18041		3.02e5	2.97e5
46	mts	DRSC03574		54137	44537
47	Bsg	DRSC01010		2.07e5	1.88e5
48	Bsg	DRSC01011		3.36e5	3.45e5
49	Prosbeta1	DRSC07159		24570	32923
50	tgy	DRSC20045		3.90e5	3.48e5
51	hui	DRSC05977		55520	63260
52	tut	DRSC08909		1.28e5	1.35e5
53	Cp15	DRSC11118		84793	84923
54	CG13008	DRSC19527		3.67e5	3.43e5
55	CG13008	DRSC19528		3.56e5	3.35e5
56	trsn	DRSC06078		42713	63387
57	Rabex-5	DRSC08628		65660	63520

7 of these entries in another layout.
eIF2D [DRSC13916]
- raw ATP luminescence, replicate 1: 2.05e5
- raw ATP luminescence, replicate 2: 1.85e5

Dph3 [DRSC14923]
- raw ATP luminescence, replicate 1: 56677
- raw ATP luminescence, replicate 2: 51567

Rim [DRSC16224]
- raw ATP luminescence, replicate 1: 43700
- raw ATP luminescence, replicate 2: 53340

Rim [DRSC16225]
- raw ATP luminescence, replicate 1: 18510
- raw ATP luminescence, replicate 2: 17730

Rim [DRSC16226]
- raw ATP luminescence, replicate 1: 43650
- raw ATP luminescence, replicate 2: 50663

Rim [DRSC16227]
- raw ATP luminescence, replicate 1: 40240
- raw ATP luminescence, replicate 2: 38160

Acp1 [DRSC01854]
- raw ATP luminescence, replicate 1: 32547
- raw ATP luminescence, replicate 2: 60820
